Data reported in patent publication US20240050472A1.
Results are given in words; binding and its absence hold for the method and conditions named. A result given as binding can be weak or reduced; the word gives no strength.

Assays:
[1] = molecular target: monkey Claudin 18.2 (monkey); assay: flow cytometry on 293T-RM18.2 cells
[2] = molecular target: murine Claudin 18.2 (murine); assay: flow cytometry on 293T-Mu18.2 cells

- binding [1]: binds
- binding [2]: binds
B1: anti-Claudin 18.2 antibody 8D2 (antibody, V domains shown)
VH: QVQLKQSGPELVKPGASVKMSCKASGYTFTSYVMHWVKQKPGQGLEWIGYINPYNDGTKYNEKFKGKATLTSDKSSSTAYMELSSLTSEDSAVYYCARRGYYGPYFDYWGQGTTLTVSS
VL: DIVMTQSPSSLTVTAGEKVTMSCKSSQSLLNGGNQKNYLTWYQQKPGQPPKLLIYWASTRESGVPDRFTGSGSGTDFTLTISSVQAEDLAVYYCQNDYYYPYTFGGGTKLEIK
